The values below come from publication PMC3689047.

This assay addresses GST-eIF3f aa106-361 (human). Briefly: pull-down; GST pull-down of recombinant His6-hMSH4 with GST-eIF3f fusion proteins on Glutathione-Sepharose 4B beads.

Results are given in words; binding and its absence hold for the method and conditions named. Binding seen in cells or lysates may run through a third protein. Binding can be weak; no strength is given. Tags and fused reporters may be left off the sequences shown.

B1: recombinant His6-hMSH4 (protein, UniProt O15457 1-936)
chain: MLRPEISSTSPSAPAVSPSSGETRSPQGPRYNFGLQETPQSRPSVQVVSASTCPGTSGAAGDRSSSSSSLPCPAPNSRPAQGSYFGNKRAYAENTVASNFTFGASSSSARDTNYPQTLKTPLSTGNPQRSGYKSWTPQVGYSASSSSAISAHSPSVIVAVVEGRGLARGEIGMASIDLKNPQIILSQFADNTTYAKVITKLKILSPLEIIMSNTACAVGNSTKLFTLITENFKNVNFTTIQRKYFNETKGLEYIEQLCIAEFSTVLMEVQSKYYCLAAVAALLKYVEFIQNSVYAPKSLKICFQGSEQTAMIDSSSAQNLELLINNQDYRNNHTLFGVLNYTKTPGGSRRLRSNILEPLVDIETINMRLDCVQELLQDEELFFGLQSVISRFLDTEQLLSVLVQIPKQDTVNAAESKITNLIYLKHTLELVDPLKIAMKNCNTPLLRAYYGSLEDKRFGIILEKIKTVINDDARYMKGCLNMRTQKCYAVRSNINEFLDIARRTYTEIVDDIAGMISQLGEKYSLPLRTSFSSARGFFIQMTTDCIALPSDQLPSEFIKISKVKNSYSFTSADLIKMNERCQESLREIYHMTYMIVCKLLSEIYEHIHCLYKLSDTVSMLDMLLSFAHACTLSDYVRPEFTDTLAIKQGWHPILEKISAEKPIANNTYVTEGSNFLIITGPNMSGKSTYLKQIALCQIMAQIGSYVPAEYSSFRIAKQIFTRISTDDDIETNSSTFMKEMKEIAYILHNANDKSLILIDELGRGTNTEEGIGICYAVCEYLLSLKAFTLFATHFLELCHIDALYPNVENMHFEVQHVKNTSRNKEAILYTYKLSKGLTEEKNYGLKAAEVSSLPPSIVLDAKEITTQITRQILQNQRSTPEMERQRAVYHLATRLVQTARNSQLDPDSLRIYLSNLKKKYKEDFPRTEQVPEKTEE
On to B1, for which the binding entry is “binds weakly”.
